Assay: general procedure: solution-phase peptide synthesis; HATU/HOAt/DIPEA

Boc-Ala-D-Iso-Glu(OBn)-Lys(Rhodamine)-D-Ala-D-Ala-OMe
conjugation yield (conjugation step): 64%

Boc-Ala-D-iso-Glu(OBn)-Lys(Fmoc)-D-Ala-D-Ala-OMe
step yield (coupling step): 77%
